# Measurements taken from the supplement of paper PMC8728848.
# The other results are listed elsewhere or left out.
# How the values were obtained:
# Test in all cases: glycan array binding signal (z-score within array); higher = stronger binding
# Conditions in all cases: glycan notation: IUPAC condensed, linker removed
# [1] = molecular target: Gal(b1-3)GlcNAc(b1-2)Man(a1-3)[Gal(b1-3)GlcNAc(b1-2)Man(a1-6)]Man(b1-4)GlcNAc(b1-4)GlcNAc
# In short: (§1)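 From the Consortium for Functional Glycomics database, 3228 arrays were curated, keeping only those whose protein sequence was available. Binding is given as a within-array Z-score averaged across arrays sharing a protein sequence and across linkers. Negative Z-scores can be read as non-binding.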
# [2] = molecular target: Gal(b1-3)GlcNAc(b1-2)Man(a1-3)[Gal(b1-3)GlcNAc(b1-2)Man(a1-6)]Man(b1-4)GlcNAc(b1-4)[Fuc(a1-6)]GlcNAc
# In short: as §1
# [3] = molecular target: Gal(b1-3)GlcNAc(b1-2)Man(a1-3)[GlcNAc(b1-4)][Gal(b1-3)GlcNAc(b1-2)Man(a1-6)]Man(b1-4)GlcNAc(b1-4)GlcNAc
# In short: as §1
# [4] = molecular target: Gal(b1-3)GlcNAc(b1-2)[Gal(b1-3)GlcNAc(b1-6)]Man(a1-6)[Gal(b1-3)GlcNAc(b1-2)Man(a1-3)]Man(b1-4)GlcNAc(b1-4)GlcNAc
# In short: as §1
# [5] = molecular target: Gal(b1-3)GlcNAc(b1-3)Gal(b1-3)GlcNAc
# In short: as §1
# [6] = molecular target: Gal(b1-3)GlcNAc(b1-3)Gal(b1-4)Glc
# In short: as §1
# [7] = molecular target: Gal(b1-3)GlcNAc(b1-3)Gal(b1-4)GlcNAc
# In short: as §1
# [8] = molecular target: Gal(b1-3)GlcNAc(b1-3)Gal(b1-4)GlcNAc(b1-2)Man(a1-3)[Gal(b1-3)GlcNAc(b1-3)Gal(b1-4)GlcNAc(b1-2)Man(a1-6)]Man(b1-4)GlcNAc(b1-4)GlcNAc
# In short: as §1
# [9] = molecular target: Gal(b1-3)GlcNAc(b1-3)Gal(b1-4)GlcNAc(b1-2)[Gal(b1-3)GlcNAc(b1-3)Gal(b1-4)GlcNAc(b1-6)]Man(a1-6)[Gal(b1-3)GlcNAc(b1-3)Gal(b1-4)GlcNAc(b1-2)Man(a1-3)]Man(b1-4)GlcNAc(b1-4)[Fuc(a1-6)]GlcNAc
# In short: as §1
# [10] = molecular target: Gal(b1-3)GlcNAc(b1-3)Gal(b1-4)GlcNAc(b1-3)Gal(b1-4)GlcNAc(b1-2)[Gal(b1-3)GlcNAc(b1-3)Gal(b1-4)GlcNAc(b1-3)Gal(b1-4)GlcNAc(b1-6)]Man(a1-6)[Gal(b1-3)GlcNAc(b1-3)Gal(b1-4)GlcNAc(b1-3)Gal(b1-4)GlcNAc(b1-2)Man(a1-3)]Man(b1-4)GlcNAc(b1-4)[Fuc(a1-6)]GlcNAc
# In short: as §1
# [11] = molecular target: Gal(b1-3)GlcNAc(b1-3)Gal(b1-4)GlcNAc(b1-6)[Gal(b1-3)GlcNAc(b1-3)]Gal(b1-4)Glc
# In short: as §1
# [12] = molecular target: Gal(b1-3)GlcNAc(b1-3)Gal(b1-4)[Fuc(a1-3)]GlcNAc
# In short: as §1
# [13] = molecular target: Gal(b1-3)GlcNAc(b1-3)Gal(b1-4)[Fuc(a1-3)]GlcNAc(b1-6)[Gal(b1-3)GlcNAc(b1-3)]Gal(b1-4)Glc
# In short: as §1
# [14] = molecular target: Gal(b1-3)GlcNAc(b1-3)GalNAc
# In short: as §1
# [15] = molecular target: Gal(b1-3)GlcNAc(b1-6)Gal(b1-4)GlcNAc
# In short: as §1
# [16] = molecular target: Gal(b1-3)GlcNAc(b1-6)GalNAc
# In short: as §1
# [17] = molecular target: Gal(b1-3)GlcNAc(b1-6)[Gal(b1-3)]GalNAc
# In short: as §1
# Gal(b1-3)GlcNAc6S = molecular target: Gal(b1-3)GlcNAc6S
# In short: as §1
# [18] = molecular target: Gal(b1-3)[Fuc(a1-4)]GlcNAc
# In short: as §1
# [19] = molecular target: Gal(b1-3)[Fuc(a1-4)]GlcNAc(b1-2)Man
# In short: as §1
# [20] = molecular target: Gal(b1-3)[Fuc(a1-4)]GlcNAc(b1-2)Man(a1-3)[Gal(b1-3)[Fuc(a1-4)]GlcNAc(b1-2)Man(a1-6)]Man(b1-4)GlcNAc(b1-4)[Fuc(a1-6)]GlcNAc
# In short: as §1
# [21] = molecular target: Gal(b1-3)[Fuc(a1-4)]GlcNAc(b1-3)Gal(b1-3)[Fuc(a1-4)]GlcNAc
# In short: as §1
# [22] = molecular target: Gal(b1-3)[Fuc(a1-4)]GlcNAc(b1-3)Gal(b1-4)[Fuc(a1-3)]GlcNAc
# In short: as §1
# [23] = molecular target: Gal(b1-3)[Fuc(a1-4)]GlcNAc(b1-6)GalNAc
# In short: as §1
# [24] = molecular target: Gal(b1-3)[GlcNAc(b1-6)]GalNAc
# In short: as §1
# [25] = molecular target: Gal(b1-3)[Neu5Ac(a2-6)]GalNAc
# In short: as §1
# [26] = molecular target: Gal(b1-3)[Neu5Ac(a2-6)]GlcNAc(b1-4)Gal(b1-4)Glc
# In short: as §1
# [27] = molecular target: Gal(b1-3)[Neu5Ac(b2-6)]GalNAc
# In short: as §1
# Gal(b1-4)Gal = molecular target: Gal(b1-4)Gal
# In short: as §1
# [28] = molecular target: Gal(b1-4)GalNAc(a1-3)[Fuc(a1-2)]Gal(b1-4)GlcNAc
# In short: as §1
# [29] = molecular target: Gal(b1-4)GalNAc(b1-3)[Fuc(a1-2)]Gal(b1-4)GlcNAc
# In short: as §1
# Gal(b1-4)Glc = molecular target: Gal(b1-4)Glc
# In short: as §1
# Gal(b1-4)Glc6S = molecular target: Gal(b1-4)Glc6S
# In short: as §1
# Gal(b1-4)GlcNAc = molecular target: Gal(b1-4)GlcNAc
# In short: as §1
# [30] = molecular target: Gal(b1-4)GlcNAc(a1-6)Gal(b1-4)GlcNAc
# In short: as §1
# Gal(b1-4)GlcNAc(b1-2)Man = molecular target: Gal(b1-4)GlcNAc(b1-2)Man
# In short: as §1
# [31] = molecular target: Gal(b1-4)GlcNAc(b1-2)Man(a1-3)Man(b1-4)GlcNAc(b1-4)GlcNAc
# In short: as §1
# [32] = molecular target: Gal(b1-4)GlcNAc(b1-2)Man(a1-3)[Gal(b1-4)GlcNAc(b1-2)Man(a1-6)]Man(b1-4)GlcNAc(b1-4)GlcNAc
# In short: as §1
# [33] = molecular target: Gal(b1-4)GlcNAc(b1-2)Man(a1-3)[Gal(b1-4)GlcNAc(b1-2)Man(a1-6)]Man(b1-4)GlcNAc(b1-4)[Fuc(a1-6)]GlcNAc
# In short: as §1
# [34] = molecular target: Gal(b1-4)GlcNAc(b1-2)Man(a1-3)[Gal(b1-4)GlcNAc(b1-2)Man(a1-6)][Gal(b1-4)GlcNAc(b1-4)]Man(b1-4)GlcNAc(b1-4)[Fuc(a1-6)]GlcNAc
# In short: as §1
# [35] = molecular target: Gal(b1-4)GlcNAc(b1-2)Man(a1-3)[Gal(b1-4)GlcNAc(b1-2)Man(a1-6)][GlcNAc(b1-4)]Man(b1-4)GlcNAc(b1-4)[Fuc(a1-6)]GlcNAc
# In short: as §1
# [36] = molecular target: Gal(b1-4)GlcNAc(b1-2)Man(a1-3)[GlcNAc(b1-2)Man(a1-6)]Man(b1-4)GlcNAc(b1-4)GlcNAc
# In short: as §1
# [37] = molecular target: Gal(b1-4)GlcNAc(b1-2)Man(a1-3)[GlcNAc(b1-4)][Gal(b1-4)GlcNAc(b1-2)Man(a1-6)]Man(b1-4)GlcNAc(b1-4)GlcNAc
# In short: as §1
# [38] = molecular target: Gal(b1-4)GlcNAc(b1-2)Man(a1-3)[Man(a1-6)]Man(b1-4)GlcNAc(b1-4)GlcNAc
# In short: as §1
# [39] = molecular target: Gal(b1-4)GlcNAc(b1-2)Man(a1-6)Man(b1-4)GlcNAc(b1-4)GlcNAc
# In short: as §1
binder,measurement,setting,value
"XTP3-B-MRH1 (Homo sapiens), Q96DZ1 (protein) LLEPLFKQSSCSYRIESYWTYEVCHGKHIRQYHEEKETGQKINIHEYYLGNMLAKNLLFEKEREAEEKEKSNEIPTKNIEGQMTPYYPVGMGNGTPCSLKQNRPRSSTVMYICHPESKHEILSVAEVTTCEYEVVILTPLLCSHPKYRFRA",glycan array binding signal (z-score),[1],-0.125
same,glycan array binding signal (z-score),[2],0.47
same,glycan array binding signal (z-score),[3],-0.558
same,glycan array binding signal (z-score),[4],0.132
same,glycan array binding signal (z-score),[5],-1.08
same,glycan array binding signal (z-score),[6],0.543
same,glycan array binding signal (z-score),[7],-1.16
same,glycan array binding signal (z-score),[8],0.941
same,glycan array binding signal (z-score),[9],1.95
same,glycan array binding signal (z-score),[10],0.617
same,glycan array binding signal (z-score),[11],-0.804
same,glycan array binding signal (z-score),[12],-0.846
same,glycan array binding signal (z-score),[13],-0.876
same,glycan array binding signal (z-score),[14],-0.229
same,glycan array binding signal (z-score),[15],0.173
same,glycan array binding signal (z-score),[16],0.17
same,glycan array binding signal (z-score),[17],-1.18
same,glycan array binding signal (z-score),Gal(b1-3)GlcNAc6S,-0.515
same,glycan array binding signal (z-score),[18],0.453
same,glycan array binding signal (z-score),[19],0.501
same,glycan array binding signal (z-score),[20],-0.731
same,glycan array binding signal (z-score),[21],1.9
same,glycan array binding signal (z-score),[22],-0.545
same,glycan array binding signal (z-score),[23],-0.931
same,glycan array binding signal (z-score),[24],-0.389
same,glycan array binding signal (z-score),[25],0.528
same,glycan array binding signal (z-score),[26],0.147
same,glycan array binding signal (z-score),[27],-0.816
same,glycan array binding signal (z-score),Gal(b1-4)Gal,-1.33
same,glycan array binding signal (z-score),[28],-0.41
same,glycan array binding signal (z-score),[29],0.91
same,glycan array binding signal (z-score),Gal(b1-4)Glc,-0.045
same,glycan array binding signal (z-score),Gal(b1-4)Glc6S,-1.17
same,glycan array binding signal (z-score),Gal(b1-4)GlcNAc,-0.514
same,glycan array binding signal (z-score),[30],-0.583
same,glycan array binding signal (z-score),Gal(b1-4)GlcNAc(b1-2)Man,0.567
same,glycan array binding signal (z-score),[31],-0.159
same,glycan array binding signal (z-score),[32],-0.351
same,glycan array binding signal (z-score),[33],-0.184
same,glycan array binding signal (z-score),[34],0.082
same,glycan array binding signal (z-score),[35],0.221
same,glycan array binding signal (z-score),[36],0.025
same,glycan array binding signal (z-score),[37],-1.76
same,glycan array binding signal (z-score),[38],1.07
same,glycan array binding signal (z-score),[39],-0.194

# Some of the entries so far, with tabs.
binder	measurement	setting	value
XTP3-B-MRH1 (Homo sapiens), Q96DZ1 (protein) LLEPLFKQSSCSYRIESYWTYEVCHGKHIRQYHEEKETGQKINIHEYYLGNMLAKNLLFEKEREAEEKEKSNEIPTKNIEGQMTPYYPVGMGNGTPCSLKQNRPRSSTVMYICHPESKHEILSVAEVTTCEYEVVILTPLLCSHPKYRFRA	glycan array binding signal (z-score)	[32]	-0.351
same	glycan array binding signal (z-score)	[33]	-0.184
same	glycan array binding signal (z-score)	[34]	0.082
same	glycan array binding signal (z-score)	[35]	0.221
